Among all 31,000 sequences or so, about 1,400 (4.5%) were called active.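 The calls were made as follows: active = median seed-adjusted z-score above 1 or below -1; inactive = the rest.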 The list shows a part of the results.
assay: Novel Modifiers of Survival Motor Neuron (SMN) Protein: Gene Identification via Genome-wide siRNA Screen; settings: HEK293T SMN2-luciferase reporter, siRNA knockdown, 72 h; actives lie on both sides;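 also: luminescence tracks full-length SMN protein made from the SMN2 reporter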
Summary of the method: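 Genome-wide siRNA screen (10418 genes, 3 siRNAs each, 1 pmol per well) by reverse transfection in HEK293T cells stably carrying an SMN2-luciferase reporter; luminescence after 72 hours, normalized to negative-control siRNA, log10-transformed, MAD-scored.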

**Q.** With GCAUCAACAGUAAUGAGAATT against KRT39 as the sequence, how does the median seed-adjusted z-score read?
**A.** inactive: 0.161

**Q.** With CAGGUAUUGUGGAAAGUAUTT against ADH4 as the sequence, how does the median seed-adjusted z-score read?
**A.** inactive: -0.0991

**Q.** With GCAUAGCCCUUACUCUACATT against ZNF527 as the sequence, how does the median seed-adjusted z-score read?
**A.** inactive: 0

**Q.** For GCCUCGGAGAAGUCAAUGUTT against GFI1, which median seed-adjusted z-score is on record?
**A.** inactive: -0.047

**Q.** With AGAGCAUUGGGUACACCAATT against COL6A2 as the sequence, how does the median seed-adjusted z-score read?
**A.** inactive: 0.0119

**Q.** For GGUUAUCUCUGGAGGACCATT against PPRC1, which median seed-adjusted z-score is on record?
**A.** inactive: 0

**Q.** For GGAGAAAGGUUCGUUAAAATT against PTPN1, which median seed-adjusted z-score is on record?
**A.** inactive: 0.05

**Q.** For GGGAAUCAGCUCACAGAGATT against PODN, which median seed-adjusted z-score is on record?
**A.** inactive: 0.589

**Q.** Which median seed-adjusted z-score does the source give for CUACUGCAAGUACUGCUUUTT against B9D1 here?
**A.** inactive: -0.161

**Q.** With GGUUUUGACCAGACCAUUATT against LSM8 as the sequence, how does the median seed-adjusted z-score read?
**A.** inactive: -0.44

**Q.** With CGGAAGAACUUUGCUCGGATT against PNCK as the sequence, how does the median seed-adjusted z-score read?
**A.** inactive: 0

**Q.** Which median seed-adjusted z-score does the source give for CGAUAUACCUAUAACGACATT against CR2 here?
**A.** inactive: 0.71

**Q.** Which median seed-adjusted z-score does the source give for CAUAGGAUCUUCAUGAACATT against GALNT10 here?
**A.** inactive: 0

**Q.** With GCACUAUCCUCAACAAGAUTT against RAB4B as the sequence, how does the median seed-adjusted z-score read?
**A.** inactive: -0.207

**Q.** Which median seed-adjusted z-score does the source give for CCAGCAAGCCGACAAAUGATT against BTBD11 here?
**A.** inactive: -0.00434

**Q.** Which median seed-adjusted z-score does the source give for GGCUUCUUCUCAACCUGUATT against DAB2 here?
**A.** inactive: 0.678

**Q.** Which median seed-adjusted z-score does the source give for GGAACUACCAGAUCGGGAATT against MYO9B here?
**A.** inactive: -0.0287

**Q.** With CCGAUACCCUUUAACUAUATT against CA8 as the sequence, how does the median seed-adjusted z-score read?
**A.** inactive: 0.172

**Q.** With CCGGUCUGCUUUUGCGUAATT against IL13RA2 as the sequence, how does the median seed-adjusted z-score read?
**A.** inactive: 0.113

**Q.** With GCUCAUUAAGCAUCAAAGATT against ZNF605 as the sequence, how does the median seed-adjusted z-score read?
**A.** inactive: -0.596

**Q.** Which median seed-adjusted z-score does the source give for CCACGAAAAUUACAUAAUUTT against KAL1 here?
**A.** inactive: 0.0824

**Q.** Which median seed-adjusted z-score does the source give for CAGAUGUCAUGAAUCAAGATT against RPUSD2 here?
**A.** inactive: -0.215

**Q.** For GCCUCCGACUGGUUUGACATT against ST3GAL2, which median seed-adjusted z-score is on record?
**A.** inactive: -0.139

**Q.** With CCAAGCACUCCUUACCAUATT against PPP1R2 as the sequence, how does the median seed-adjusted z-score read?
**A.** inactive: 0.208

**Q.** For GAUGAUGCCUAGUAAAUUATT against MBD2, which median seed-adjusted z-score is on record?
**A.** inactive: -0.067

**Q.** For AAUUGAGGAAUACAAAAGATT against PAX3, which median seed-adjusted z-score is on record?
**A.** inactive: 0.0223

**Q.** For GCAGACAACUCCUCGAUGATT against GPR68, which median seed-adjusted z-score is on record?
**A.** inactive: -0.0233

**Q.** Which median seed-adjusted z-score does the source give for GCAUCGAAUUUGCAGAACATT against PNN here?
**A.** active: 1.29

**Q.** With CCCUGAAGGUUACCUCUUUTT against MGRN1 as the sequence, how does the median seed-adjusted z-score read?
**A.** inactive: -0.318

**Q.** For AGAGCGUGAGUGGGCAGAATT against CBFA2T3, which median seed-adjusted z-score is on record?
**A.** inactive: -0.135

**Q.** With GAGCUGCUAUCAGACAAAUTT against ETS2 as the sequence, how does the median seed-adjusted z-score read?
**A.** inactive: 0.636

**Q.** Which median seed-adjusted z-score does the source give for CAGUGACCUUUCUAAGACATT against ADAMTS6 here?
**A.** inactive: 0.023

**Q.** For CCGUCACCAUCCUCAUCUATT against PORCN, which median seed-adjusted z-score is on record?
**A.** inactive: 0.214

**Q.** With CGAGUGCAGUGUCAAGUUUTT against ZNF423 as the sequence, how does the median seed-adjusted z-score read?
**A.** inactive: 0.0134

**Q.** For ACAUCGAACUAAGACCUGATT against KCNK6, which median seed-adjusted z-score is on record?
**A.** inactive: -0.199

**Q.** For GCAGUUUGGUGUUUACCCATT against ZNF536, which median seed-adjusted z-score is on record?
**A.** inactive: -0.295

**Q.** With CUAUAUGACCCAUACCAUUTT against GLB1L as the sequence, how does the median seed-adjusted z-score read?
**A.** inactive: -0.263

**Q.** Which median seed-adjusted z-score does the source give for CUAUCACUAUUCAAGGCAATT against SEMA6D here?
**A.** inactive: 0.0624

**Q.** Which median seed-adjusted z-score does the source give for CUUCAUUGAUUGUAUCAGATT against PREPL here?
**A.** inactive: -0.459

**Q.** Which median seed-adjusted z-score does the source give for CGAUCACAACUGAAACUCATT against PDE8A here?
**A.** inactive: 0.302

**Q.** For CCAACAUUGCCUACCCUAATT against SLC5A9, which median seed-adjusted z-score is on record?
**A.** inactive: 0.15

**Q.** For GUGGUCACUUGGUUCCAGATT against LBX2, which median seed-adjusted z-score is on record?
**A.** inactive: 0.538

**Q.** Which median seed-adjusted z-score does the source give for GCCGUAGACAGAAUCAUGATT against REEP6 here?
**A.** inactive: -0.348

**Q.** For GCCUGAUUACUGUUAUGCATT against DHX8, which median seed-adjusted z-score is on record?
**A.** inactive: -0.251

**Q.** Which median seed-adjusted z-score does the source give for ACACUACGGCUGAAUCUCATT against EMILIN1 here?
**A.** inactive: 0

**Q.** Which median seed-adjusted z-score does the source give for GGAACACUUACUAUACUAATT against ARL5A here?
**A.** inactive: 0

**Q.** For GGUGAUUCUUGAUCAGAUUTT against LIPM, which median seed-adjusted z-score is on record?
**A.** inactive: -0.00856

**Q.** Which median seed-adjusted z-score does the source give for GGGAUAAGCUGAUAAAGGATT against NDUFS5 here?
**A.** active: -1.35

**Q.** With GGUACUACGUUGAAAGACUTT against TGFBR1 as the sequence, how does the median seed-adjusted z-score read?
**A.** inactive: 0.226

**Q.** For GGACUGUAAUCUAAAUCCATT against ZFYVE9, which median seed-adjusted z-score is on record?
**A.** inactive: 0.373

**Q.** For CUAUGAAGGUUUAAGUAUATT against CAPS2, which median seed-adjusted z-score is on record?
**A.** inactive: 0.135

**Q.** For GGGUCUCAACUGUGAGUCATT against ARSE, which median seed-adjusted z-score is on record?
**A.** inactive: 0.705

**Q.** For CAGAUUUGGUUUGAGAAUATT against RHOXF2, which median seed-adjusted z-score is on record?
**A.** inactive: -0.331

**Q.** Which median seed-adjusted z-score does the source give for GAACUGAGCGAGCAAGUUUTT against COL6A3 here?
**A.** inactive: 0.341

— PubChem BioAssay AID1347426 (Functional Genomics Laboratory (NCATS/FGL), 2020)
